The assay has as its target T1, Biotin-BH4-Bcl-XL.
T1 sequence (peptide, biotin on the N-terminus (also used without the biotin tag)): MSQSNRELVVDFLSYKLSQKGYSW
Kind of assay: SPR; Biacore T200; biotin peptides immobilised on different channels of a streptavidin-coated sensor chip; purified GST-fusion proteins flowed over at the indicated concentrations; binding to the scrambled peptide subtracted; both purified.

These are yes or no findings as the source states them, for the method shown.

B1: GST-tagged IP3R1 domain 3 (mouse IP3R1, a.a. 923-1581) (protein)
chain: SIHGVGELMTQVVLRGGGFLPMTPMAAAPEGNVKQAEPEKEDIMVMDTKLKIIEILQFILNVRLDYRISCLLCIFKREFDESNSQSSETSSGNSSQEGPSNVPGALDFEHIEEQAEGIFGGSEENTPLDLDDHGGRTFLRVLLHLTMHDYPPLVSGALQLLFRHFSQRQEVLQAFKQVQLLVTSQDVDNYKQIKQDLDQLRSIVEKSELWVYKGQGPDEPMDGASGENEHKKTEEGTSKPLKHESTSSYNYRVVKEILIRLSKLCVQESASVRKSRKQQQRLLRNMGAHAVVLELLQIPYEKAEDTKMQEIMRLAHEFLQNFCAGNQQNQALLHKHINLFLNPGILEAVTMQHIFMNNFQLCSEINERVVQHFVHCIETHGRNVQYIKFLQTIVKAEGKFIKKCQDMVMAELVNSGEDVLVFYNDRASFQTLIQMMRSERDRMDENSPLMYHIHLVELLAVCTEGKNVYTEIKCNSLLPLDDIVRVVTHEDCIPEVKIAYINFLNHCYVDTEVEMKEIYTSNHMWKLFENFLVDICRACNNTSDRKHADSILEKYVTEIVMSIVTTFFSSPFSDQSTTLQTRQPVFVQLLQGVFRVYHCNWLMPSQKASVESCIRVLSDVAKSRAIAIPVDLDSQVNNLFLKSHNIVQKTALNWRLSAR
Take B1: the binding entry is “no binding”.

For the origin of these results see article PMC4397538 (2015).
